Consider one sequence from article doi:10.1101/2020.01.28.924217.

For at least one entry, the source does not settle the construct or the ends of the probe. Where a protein sequence is shown, tags need not be part of it.

Data set [1] deals with T1, PfaF (Photobacterium profundum SS9) (UniProt Q6LVL5).
T1 sequence (looked up, limits assumed): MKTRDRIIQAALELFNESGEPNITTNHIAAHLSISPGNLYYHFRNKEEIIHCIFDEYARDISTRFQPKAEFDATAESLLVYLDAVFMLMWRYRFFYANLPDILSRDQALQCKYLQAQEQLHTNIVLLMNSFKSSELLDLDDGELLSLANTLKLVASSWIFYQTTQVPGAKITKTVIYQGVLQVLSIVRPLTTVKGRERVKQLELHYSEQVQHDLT
Briefly: DNase I footprinting. The settings on record: 22 bp protected, -182 to -204 of the promoter probe as stated, coding strand.

Data set [2] addresses T1, PfaF (Photobacterium profundum SS9). As to the kind of experiment: competition with a labelled probe. The settings on record: unlabeled same probe, ~80-fold molar excess, partially reversed binding.

Regarding “AACTGGTCTTAAGTGATCCAACCTCTTGCTCCAGTGATTGTAACGAAAAGCGTCCTCGGGTAGTCTGCTCAACCATTAACTGATTAAGCATGCTTTCATTAGGGATGGTAAGTGCCTCCTTATTTGATAATCGCAGCAGTAGTACAGCAGGATTATGATGGATATTACCGTTACGAATGAAAGCACAACTGTGCATCGTCGAATGTCAAAAAAATGCAGTCATAAATATGCATAATCTTTCTACTCGTACATTCCGAAGCCATGACGCTGCCAATCAATTTTTAGCGCCTGTACTCACACATGCGTTATGCCATTTTTTCACTCTTATTTTTCACCAGTTGCCTAATCGCAACGCCCACACCGAATATATAACGCCCAGCTCTTGGGTGTTAAGCGGAGA (double strand) [pfaA promoter probe (400 bp)]”, the binding result in data set [1] and in data set [2] was “binds” each time.
